Experimental data: US11453703B2, “Heterotandem bicyclic peptide complexes” (BicycleTX Limited, priority 2018, dated 2022)
At least one peptide structure holds a part that was inferred or is arguable (an end, a ring closure or a residue).

Amino acid sequences for entries named in this document (tags omitted). Residues count along the entry.
UniProt Q07011, 24-255: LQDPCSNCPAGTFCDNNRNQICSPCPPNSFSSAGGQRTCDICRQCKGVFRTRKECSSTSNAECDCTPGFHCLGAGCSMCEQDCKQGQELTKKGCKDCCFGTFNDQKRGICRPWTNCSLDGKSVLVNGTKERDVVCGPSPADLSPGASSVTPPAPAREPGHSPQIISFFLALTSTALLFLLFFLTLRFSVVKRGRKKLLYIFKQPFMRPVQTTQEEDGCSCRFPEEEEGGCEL
UniProt P29317, 24-976: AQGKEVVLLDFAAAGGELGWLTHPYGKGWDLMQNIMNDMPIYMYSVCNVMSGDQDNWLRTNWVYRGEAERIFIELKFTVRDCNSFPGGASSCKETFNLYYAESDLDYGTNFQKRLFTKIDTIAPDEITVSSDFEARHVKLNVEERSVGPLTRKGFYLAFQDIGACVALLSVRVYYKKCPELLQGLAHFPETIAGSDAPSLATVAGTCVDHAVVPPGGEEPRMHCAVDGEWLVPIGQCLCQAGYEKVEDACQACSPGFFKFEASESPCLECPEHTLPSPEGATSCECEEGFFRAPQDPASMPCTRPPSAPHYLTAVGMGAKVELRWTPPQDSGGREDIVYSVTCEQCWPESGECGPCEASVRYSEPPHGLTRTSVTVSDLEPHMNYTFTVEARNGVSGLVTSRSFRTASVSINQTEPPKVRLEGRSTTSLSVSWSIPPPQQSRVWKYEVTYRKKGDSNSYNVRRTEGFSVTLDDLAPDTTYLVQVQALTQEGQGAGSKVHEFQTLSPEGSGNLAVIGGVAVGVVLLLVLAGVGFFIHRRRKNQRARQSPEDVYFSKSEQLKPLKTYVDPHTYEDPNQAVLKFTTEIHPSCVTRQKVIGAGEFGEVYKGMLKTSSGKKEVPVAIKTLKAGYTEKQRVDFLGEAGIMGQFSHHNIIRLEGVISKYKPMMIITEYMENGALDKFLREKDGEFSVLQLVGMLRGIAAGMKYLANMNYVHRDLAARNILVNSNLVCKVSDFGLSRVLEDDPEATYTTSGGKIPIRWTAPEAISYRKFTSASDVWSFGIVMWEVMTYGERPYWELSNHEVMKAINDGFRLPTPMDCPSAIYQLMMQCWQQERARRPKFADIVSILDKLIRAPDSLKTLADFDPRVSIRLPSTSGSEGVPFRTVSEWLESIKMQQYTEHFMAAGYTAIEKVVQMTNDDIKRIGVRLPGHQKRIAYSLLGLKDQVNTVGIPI

Columns and labels:
CD137 = CD137 (Homo sapiens, UniProt Q07011); experiment: CD137 reporter assay, co-culture with PD-L1 expressing cell line RKO; type: cell-based; parameters: host or cells: Jurkat reporter cells; conditions: tumour target PD-L1, co-culture with RKO, 6 h
Method: Culture medium referred to as R1 media is prepared by adding 1% FBS to RPMI-1640 (component of Promega kit CS196005). Serial dilutions of test articles in R1 are prepared in a sterile 96 well-plate. Use 25 μl per well of test articles or R1 (as a background control) to designated wells in white cell culture plate. Tumour cells* are harvested and resuspended at a concentration of 400,000 cells/mL in R1 media. Twenty five (25) μL/well tumour cells are used in white cell culture plate. Jurkat cells (Promega kit CS196005, 0.5 mL) are thawed in the water bath and then added to 5 ml pre-warmed R1 medium. Twenty five (25) μL/well Jurkat cells are used in white cell culture plate. Incubate the cells and test articles for 6h at 37° C., 5% CO2. At the end of 6 h, add 75 μl/well Bio-Glo™ (Promega) and incubate for 10 min before reading luminescence in a plate reader (Clariostar, BMG). The fold change relative to cells (Jurkat cells+Cell line used in co-culture) is calculated and plotted in GraphPad Prism as log(agonist) vs response to determine EC50 (nM) and Fold Induction over background (Max)

human EphA2 protein = human EphA2 protein (Homo sapiens, UniProt P29317); experiment: EphA2 Biacore (SPR) binding assay; conditions: biotinylated human EphA2, 25° C.
Method: Biacore experiments were performed to determine ka (M^−1s^−1), kd (s^−1), KD (nM) values of heterotandem peptides binding to human EphA2 protein.
EphA2 were biotinylated with EZ-Link™ Sulfo-NHS-LC-Biotin for 1 hour in 4 mM sodium acetate, 100 mM NaCl, pH 5.4 with a 3× molar excess of biotin over protein. The degree of labelling was determined using a Fluorescence Biotin Quantification Kit (Thermo) after dialysis of the reaction mixture into PBS. For analysis of peptide binding, a Biacore T200 instrument was used with a XanTec CMD500D chip. Streptavidin was immobilized on the chip using standard amine-coupling chemistry at 25° C. with HBS-N (10 mM HEPES, 0.15 M NaCl, pH 7.4) as the running buffer. Briefly, the carboxymethyl dextran surface was activated with a 7 min injection of a 1:1 ratio of 0.4 M 1-ethyl-3-(3-dimethylaminopropyl) carbodiimide hydrochloride (EDC)/0.1 M N-hydroxy succinimide (NHS) at a flow rate of 10 it/min. For capture of streptavidin, the protein was diluted to 0.2 mg/ml in 10 mM sodium acetate (pH 4.5) and captured by injecting 120 μl onto the activated chip surface. Residual activated groups were blocked with a 7 min injection of 1 M ethanolamine (pH 8.5):HBS-N (1:1). Buffer was changed to PBS/0.05% Tween 20 and biotinylated EphA2 was captured to a level of 500-1500 RU using a dilution of protein to 0.2 μM in buffer. […]

| SMILES | EC50 (CD137) [nM] | Kd (human EphA2 protein) [nM] |
| --- | --- | --- |
| CCCC[C@@H]1NC(=O)[C@H](Cc2ccc(O)cc2)NC(=O)[C@@H]2CCCN2C(=O)[C@H](CC(=O)O)NC(=O)[C@H](C)NC(=O)[C@H](Cc2ccccc2)NC(=O)[C@@H]2CSCCC(=O)N3CN(CN(C3)C(=O)CCSC[C@@H](C(=O)N[C@@H](CNC(=O)CCOCCOCCOCCOCCOCCOCCOCCOCCOCCOCCOCCOCCn3cc(CCC(=O)NCCCC[C@@H]4NC(=O)[C@H](CCC(N)=O)NC(=O)[C@@H]5CSCCC(=O)N6CN(CN(C6)C(=O)CCSC[C@@H](C(=O)N6CCC[C@H]6C(=O)N[C@@H](CO)C(=O)N[C@@H](Cc6c[nH]cn6)C(N)=O)NC(=O)[C@H](CC(C)C)NC(=O)[C@H](Cc6c[nH]cn6)NC(=O)[C@H](CC(C)C)NC4=O)C(=O)CCSC[C@H](NC(=O)[C@H](CCCCN)NC(=O)[C@H](CC(=O)O)NC(=O)[C@H](CO)NC(C)=O)C(=O)N[C@@H](CO)C(=O)N[C@@H](C)C(=O)NCC(=O)N[C@@H](Cc4c[nH]c6ccccc46)C(=O)N[C@@H](CC(C)C)C(=O)N[C@@H]([C@@H](C)O)C(=O)N[C@@H](CCSC)C(=O)N5)nn3)C(N)=O)NC1=O)C(=O)CCSC[C@H](NC(C)=O)C(=O)N[C@@H](CC(C)(C)C)C(=O)N1CCC[C@H]1C(=O)N[C@@H](CCC(=O)O)C(=O)N[C@H](C)C(=O)N1CCC[C@H]1C(=O)N[C@@H](Cc1ccc(O)cc1)C(=O)N2 [BCY11019] | 18 |  |
| CCCC[C@@H]1NC(=O)[C@H](Cc2ccc(O)cc2)NC(=O)[C@@H]2CCCN2C(=O)[C@H](CC(=O)O)NC(=O)[C@H](C)NC(=O)[C@H](Cc2ccccc2)NC(=O)[C@@H]2CSCCC(=O)N3CN(CN(C3)C(=O)CCSC[C@@H](C(=O)N[C@@H](CNC(=O)CCOCCOCCOCCOCCOCCOCCOCCOCCOCCOCCOCCOCCn3cc(CCC(=O)NCCC(=O)N(C)CC(=O)N(C)CC(=O)N(C)CC(=O)N(C)CC(=O)N(C)CC(=O)N(C)CC(=O)N(C)CC(=O)N(C)CC(=O)N(C)CC(=O)N(C)CC(=O)N[C@H](C(=O)NCC(=O)N4CCC[C@H]4C(=O)N[C@H]4CSCCC(=O)N5CN6CN(C5)C(=O)CCSC[C@H](NC(=O)[C@@H]5CCCN5C(=O)[C@H]([C@@H](C)O)NC(=O)[C@@H]5CCCN5C(=O)[C@H](CC(=O)O)NC(=O)[C@H](Cc5c[nH]c7ccccc57)NC(=O)[C@H](CC(C)C)NC4=O)C(=O)N[C@@H](C)C(=O)N[C@@H](CC(N)=O)C(=O)N[C@@H](CC(C)C)C(=O)N[C@@H](Cc4c[nH]cn4)C(=O)N[C@@H](CC(C)C)C(=O)N[C@@H](CCCCNC(=N)N)C(=O)N[C@H](C(N)=O)CSCCC6=O)C(C)C)nn3)C(N)=O)NC1=O)C(=O)CCSC[C@H](NC(=O)[C@H](C)NC(C)=O)C(=O)N[C@@H]([C@@H](C)CC)C(=O)N[C@@H](CCC(=O)O)C(=O)N[C@@H](CCC(=O)O)C(=O)NCC(=O)N[C@@H](CCC(N)=O)C(=O)N[C@@H](Cc1ccc(O)cc1)C(=O)N2 [BCY8943] |  | > 200 |
| CCCC[C@@H]1NC(=O)[C@H](Cc2ccc(O)cc2)NC(=O)[C@@H]2CCCN2C(=O)[C@H](CC(=O)O)NC(=O)[C@H](C)NC(=O)[C@H](Cc2ccccc2)NC(=O)[C@@H]2CSCCC(=O)N3CN(CN(C3)C(=O)CCSC[C@@H](C(=O)N[C@@H](CNC(=O)CCOCCOCCOCCOCCOCCn3cc(CCC(=O)NCCCC[C@@H]4NC(=O)[C@H](CCC(N)=O)NC(=O)[C@@H]5CSCCC(=O)N6CN(CN(C6)C(=O)CCSC[C@@H](C(=O)N6CCC[C@H]6C(=O)N[C@@H](CO)C(=O)N[C@@H](Cc6c[nH]cn6)C(N)=O)NC(=O)[C@H](CC(C)C)NC(=O)[C@H](Cc6c[nH]cn6)NC(=O)[C@H](CC(C)C)NC4=O)C(=O)CCSC[C@H](NC(=O)[C@H](CCCCN)NC(=O)[C@H](CC(=O)O)NC(=O)[C@H](CO)NC(C)=O)C(=O)N[C@@H](CO)C(=O)N[C@@H](C)C(=O)NCC(=O)N[C@@H](Cc4c[nH]c6ccccc46)C(=O)N[C@@H](CC(C)C)C(=O)N[C@@H]([C@@H](C)O)C(=O)N[C@@H](CCSC)C(=O)N5)nn3)C(N)=O)NC1=O)C(=O)CCSC[C@H](NC(C)=O)C(=O)N[C@@H](CC(C)(C)C)C(=O)N1CCC[C@H]1C(=O)N[C@@H](CCC(=O)O)C(=O)N[C@H](C)C(=O)N1CCC[C@H]1C(=O)N[C@@H](Cc1ccc(O)cc1)C(=O)N2 [BCY11381] | 105 |  |
